Biological target: Beta-1 adrenergic receptor (Cavia porcellus, UniProt B0FL73)
Experiment: Activity at beta-1 adrenergic receptor
Conditions: read-out: pA2 (converted)

Sequences of proteins named here, by UniProt entry; tags and fusion partners are left off.
UniProt B0FL73, whole entry: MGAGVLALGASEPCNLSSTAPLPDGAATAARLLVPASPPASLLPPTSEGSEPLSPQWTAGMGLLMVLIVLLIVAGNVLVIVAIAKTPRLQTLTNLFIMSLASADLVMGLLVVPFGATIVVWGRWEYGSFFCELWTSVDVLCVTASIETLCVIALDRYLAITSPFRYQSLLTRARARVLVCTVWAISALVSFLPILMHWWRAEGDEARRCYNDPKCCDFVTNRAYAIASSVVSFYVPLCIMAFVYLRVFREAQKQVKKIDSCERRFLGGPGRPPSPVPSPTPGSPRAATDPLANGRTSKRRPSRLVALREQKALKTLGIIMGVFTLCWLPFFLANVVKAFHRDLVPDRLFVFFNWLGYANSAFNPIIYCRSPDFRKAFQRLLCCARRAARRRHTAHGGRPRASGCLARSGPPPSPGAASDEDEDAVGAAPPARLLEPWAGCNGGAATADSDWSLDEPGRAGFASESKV

Kb: 158 nM
Structure (SMILES): CC(C)NCC(O)COc1ccc(CC(N)=O)cc1 (stereo unspecified) [ATENOLOL]

From ChEMBL document CHEMBL1125549, “Computer-aided mapping of the beta-adrenoceptor. 1. Explanation for effect of para substitution on blocking activity at the beta-1-adrenoceptor” (J Med Chem, 1992)
